# Data: the supplement of paper PMC5949888
# Most values lie at the floor of the assay. Slopes are relative: functional sequences can read slightly below zero.
# Tested on: Saccharomyces cerevisiae PS128 hsf1 delta, HSF1(1-493) fusion
# Experiment: growth estimate (transactivation domain function in HSF1 fusion, heat-shock survival) (a.u. (slope of normalised read count over time)); higher = stronger growth at 37°C, i.e. more transactivation activity
# Details: library: random library
row,Substance,growth estimate
1,LIFATVQLRWGLTTSVSKVA,< -0.25
2,LIFHSSWLRVYAEDHSSASV,< -0.25
3,LIFLGGQRA,-0.232
4,LIFPVLGIFSEHGSSLPIDC,< -0.25
5,LIG,< -0.25
6,LIGFIIKDAPS,-0.243
7,LIGGQHRG,< -0.25
8,LIGSPWGCNRGDTS,< -0.25
9,LIHGRLLRRNLSLVLTVRKD,-0.229
10,LIHKWLGSEFTSCVIRLSVF,-0.243
11,LIHQIRSEPRLECGYPVGLS,< -0.25
12,LIHTRRRGDIKAYSVVPRAF,< -0.25
13,LIISNVAVVDKGIELGERIG,< -0.25
14,LIKTLRFIRSLIYLRGKGLR,< -0.25
15,LIL,-0.217
16,LILC,< -0.25
17,LILKCLPFNDRIL,< -0.25
18,LILLGPND,< -0.25
19,LILRRLPAQLRPARRGHQHL,< -0.25
20,LILSTDGSNRSHHPS,< -0.25
21,LIMGVG,< -0.25
22,LINESEVSGRA,< -0.25
23,LINRSCRAAPTF,-0.245
24,LIPDQ,< -0.25
25,LIPRPVT,< -0.25

row,Substance,growth estimate
1,LIPWSQ,< -0.25
2,LIPYLRNPLSTVVR,< -0.25
3,LIRGQHSVWSLRHSSNVMPR,< -0.25
4,LIRREIYQCEY,< -0.25
5,LIRRRLICAYTGPKT,< -0.25
6,LIRVKSGAASRPGRNICSG,< -0.25
7,LIRVRRSIALAWGRVYTIRN,< -0.25
8,LIRWTGYGATLRR,< -0.25
9,LISARRIHNRL,< -0.25
10,LISCYRTRGGTAGHGNLGV,< -0.25
11,LISHRS,< -0.25
12,LISVRHSRLG,< -0.25
13,LITCFVSRGGRDPVCLPISL,< -0.25
14,LIVAAI,< -0.25
15,LIVIEYVTIASLLGSRDIGS,< -0.25
16,LIVNF,< -0.25
17,LIVVGLTRS,< -0.25
18,LIYFTAAEVYPALSSVSGMQ,-0.245
19,LKADGATLPVGLWRTYPIRT,< -0.25
20,LKCEFLDRVLVRERVPARIQ,< -0.25
21,LKCSDVWSHPAKTTSWTCAL,< -0.25
22,LKGGWEWQTERHVLRWSFSR,< -0.25
23,LKGHRDVTQIRSKREHL,< -0.25
24,LKGVMCVHRCRRGHRTYVAC,< -0.25
25,LKLMIVVDGI,< -0.25

row,Substance,growth estimate
1,LKLTKAIRNVTVRQLELQDF,< -0.25
2,LKNGRLLALSM,< -0.25
3,LKPLRWQHLYGLDHGGH,< -0.25
4,LKPVWTDTFAAYGSRLWYPH,< -0.25
5,LKQSNLPTSQSASQYNGSQS,< -0.25
6,LKRTLQEGYKGGLQFLIARL,< -0.25
7,LKSANRVYTAQTPVHAIMKQ,< -0.25
8,LKTEIWARDLGPSIFDVQPP,< -0.25
9,LKVERH,< -0.25
10,LKVI,< -0.25
11,LKVLVRLDGR,< -0.25
12,LKVVDV,< -0.25
13,LLAQTGRRVSAGEGFSLGEI,< -0.25
14,LLCSLFTPHVRYV,-0.216
15,LLDILEGTYPMGYDVSPSFV,0.945
16,LLDNTVRSGGLPKVAGFSVL,< -0.25
17,LLDPTYVTSVVCVRQPRKVR,< -0.25
18,LLEAILAQGIWKST,< -0.25
19,LLEIDKLNRL,< -0.25
20,LLEKEWSGHRHRKLLVTSRG,< -0.25
21,LLELIKNEPN,< -0.25
22,LLELSRRSKQSRNG,< -0.25
23,LLEPEISSGVRVRRFAPTDQ,< -0.25
24,LLEQ,< -0.25
25,LLFFE,-0.25

row,Substance,growth estimate
1,LLFSHVGFAGSQET,< -0.25
2,LLFTAVKAPRVPSFEDQVRT,< -0.25
3,LLFVFWALKTSHVALRLGRL,< -0.25
4,LLGCL,< -0.25
5,LLGGGSLGIANHGRNLFPDS,< -0.25
6,LLGGVWVLSAQVRLIELSAA,< -0.25
7,LLGHQIRCKHECHSLLNFSE,< -0.25
8,LLGKRVVTRPRYDSRRRRGY,< -0.25
9,LLGQFPKFALMTGEKWLCLK,< -0.25
10,LLGRYRHAKAERRAVWERI,< -0.25
11,LLGSSRGCAIASPAPCGGPG,< -0.25
12,LLGTEAGLAGPGRTTHLMVA,< -0.25
13,LLIATCKNFHGGPLHLTMGK,< -0.25
14,LLIIQCLVVWRTWV,< -0.25
15,LLISTSTSMPPYEA,< -0.25
16,LLKFGERL,< -0.25
17,LLKGEAEIRGSCLNRTLVHQ,< -0.25
18,LLKRLAPGRSQSDRIPGGWC,< -0.25
19,LLKRSPARTKGGVGTNSSRK,< -0.25
20,LLKTFVTE,< -0.25
21,LLLHFSGTGPI,< -0.25
22,LLLPEVDISGWVIYPSENGH,-0.247
23,LLLRDVRKAPSRKDAGATYV,< -0.25
24,LLLRVTPLK,< -0.25
25,LLLSLSMDNAESGDQSATSS,< -0.25

row,Substance,growth estimate
1,LLMGLIRSAVSDEGAGTAWD,< -0.25
2,LLNPGRPTSDKRKGYGSGPS,< -0.25
3,LLPERGEHLIVTGYACWGRE,< -0.25
4,LLPGAYPISFRSDR,< -0.25
5,LLPKSPVEEAGSCSG,< -0.25
6,LLPSRFPTGNLPLGCGKPPS,< -0.25
7,LLPTVVCDELLALARHSLP,< -0.25
8,LLPYPRSAACKVMN,< -0.25
9,LLQLVEETPKSSVLTIVFRG,< -0.25
10,LLRIESAF,< -0.25
11,LLRNRALHRDVLVIDEHSRR,< -0.25
12,LLRSAKTGAIGSWVKSVTAP,< -0.25
13,LLRSVRDFAVTRNS,< -0.25
14,LLRVNFRRCLYGFLYGDSTG,-0.208
15,LLSERYQIRMGR,< -0.25
16,LLSFKQLVPPRVDNGAY,< -0.25
17,LLSIARTVRM,< -0.25
18,LLSLTL,< -0.25
19,LLSSGAGYQVIALLPITTC,< -0.25
20,LLSVLYTFDCP,< -0.25
21,LLTCR,< -0.25
22,LLTEPIV,-0.243
23,LLTK,< -0.25
24,LLTL,< -0.25
25,LLTSSWEGKVGY,< -0.25

row,Substance,growth estimate
1,LLTVASQLFLRGFEQR,< -0.25
2,LLTVVWCFDDDLRLLLRT,< -0.25
3,LLTWVACVGTSRDRTMASSQ,< -0.25
4,LLVKLTGQVLGV,< -0.25
5,LLVPA,-0.0415
6,LLVQCLEGCPIIR,-0.248
7,LLVVHPYVD,< -0.25
8,LLWCWGVARCIDCCSSKSCL,< -0.25
9,LLWDTGEGTHCHGKVTGLSS,< -0.25
10,LLYHARP,< -0.25
11,LLYNLFIGDPVGRGTCCQ,0.216
12,LLYPSRIA,< -0.25
13,LLYWINDTKTADTVRLPNRH,< -0.25
14,LMARMATNYRVMS,< -0.25
15,LMCFERLICVEPLRSNDTGP,< -0.25
16,LMCVDQWSSDTVTLRGGIRA,< -0.25
17,LMDKNFLIR,< -0.25
18,LMIAVGNQYRYVQHMCSYGH,< -0.25
19,LMKLLARNTQKIKQMAWSGV,< -0.25
20,LMKLWNCGLTEQCFT,< -0.25
21,LMLWVGPRASSNFSQPPPPR,< -0.25
22,LMQRKPLFPQI,< -0.25
23,LMQVAGNATALL,< -0.25
24,LMRFSKLLHSSC,< -0.25
25,LMRVDTWGDQRARPRQL,< -0.25

row,Substance,growth estimate
1,LMSERSGQIGIMGATHLDRQ,< -0.25
2,LMSQPTAGCFPIRD,< -0.25
3,LMSVSRLQLFSVARLASFVT,< -0.25
4,LMTLRVTVKPGSLPQWVEVS,< -0.25
5,LMVLAMGNGYERPASPRFVY,< -0.25
6,LNACKYRNTKRKVLSSNIAI,< -0.25
7,LNAIRR,< -0.25
8,LNARGDMPVSFSSAG,< -0.25
9,LNCRTSCTVRDGGMCIVRGH,< -0.25
10,LNG,< -0.25
11,LNGSQGIGRLGVSRSAAGSR,< -0.25
12,LNGTVSDDNAIGVTISAH,< -0.25
13,LNHIEAFILRGPWTSS,< -0.25
14,LNI,< -0.25
15,LNIDRRIGP,< -0.25
16,LNIRRKIGSGCAPRLRICHE,< -0.25
17,LNKAVRVLPAYLGGPPRTVA,< -0.25
18,LNKGTNFRPKFSLGWTCECS,-0.187
19,LNLSPLCRSYFSRT,< -0.25
20,LNMKV,< -0.25
21,LNNGFAHVRTSPGVD,< -0.25
22,LNNLYVTCGA,< -0.25
23,LNNNVLSFV,< -0.25
24,LNPDGPGSDRRVEPCQDLAG,< -0.25
25,LNRAFPE,< -0.25

# Part of the list above, reformatted:
row	Substance	growth estimate
2	LIFHSSWLRVYAEDHSSASV	< -0.25
3	LLPERGEHLIVTGYACWGRE	< -0.25

# (next part)

row,Substance,growth estimate
1,LNRPECLKLGTHGNMRALET,< -0.25
2,LNRSNKYAMLPSAGFLTRPG,< -0.25
3,LNRSRPGVSHTSTIPASR,< -0.25
4,LNSAGVQPSKPVLDYHVVPG,< -0.25
5,LNSVIVRWWGNSVGSGDNDG,< -0.25
6,LNSWCLRLPAVGVVNPLNPR,< -0.25
7,LNSWVVSRWLRVGICCRRPT,< -0.25
8,LNTLNRAHDSHGRWVQYFLY,< -0.25
9,LNVLREGTPQKRHFLRFRPI,< -0.25
10,LNWIL,< -0.25
11,LNYRQNLSAIREERCQFLTL,< -0.25
12,LPAIDLSKTPFYA,-0.168
13,LPANLLGQYVTTRGAPRRQH,-0.235
14,LPCSILGCSCSCRSDYRPLR,< -0.25
15,LPDH,< -0.25
16,LPEAASRNSS,< -0.25
17,LPFP,< -0.25
18,LPFRRVADRVGGLARREEYG,0.0721
19,LPGALDTVGTFKRANCPSSW,< -0.25
20,LPGRTGPSTGNGGRCAGKNK,< -0.25
21,LPGTGVCFYKKE,< -0.25
22,LPHAALPVSWGFLMLADRQS,< -0.25

# Another view of some results above.
row	Substance	growth estimate
6	LLPSRFPTGNLPLGCGKPPS	< -0.25
7	LLPTVVCDELLALARHSLP	< -0.25
8	LLPYPRSAACKVMN	< -0.25
9	LLQLVEETPKSSVLTIVFRG	< -0.25
10	LLRIESAF	< -0.25
11	LLRNRALHRDVLVIDEHSRR	< -0.25
